PMC6041257
Changes are numbered by the printed parent chain. No constants are given. Whether binding was seen depends on the method and setting. Binding seen in cells or lysates may run through a third protein. Some results given as binding are weak or reduced against the parent protein; the word gives no strength. Blank lines part the entries; values can stand above or below the binder they belong to.

The chains behind the UniProt entries cited, without tags or fusion partners.
UniProt P08151: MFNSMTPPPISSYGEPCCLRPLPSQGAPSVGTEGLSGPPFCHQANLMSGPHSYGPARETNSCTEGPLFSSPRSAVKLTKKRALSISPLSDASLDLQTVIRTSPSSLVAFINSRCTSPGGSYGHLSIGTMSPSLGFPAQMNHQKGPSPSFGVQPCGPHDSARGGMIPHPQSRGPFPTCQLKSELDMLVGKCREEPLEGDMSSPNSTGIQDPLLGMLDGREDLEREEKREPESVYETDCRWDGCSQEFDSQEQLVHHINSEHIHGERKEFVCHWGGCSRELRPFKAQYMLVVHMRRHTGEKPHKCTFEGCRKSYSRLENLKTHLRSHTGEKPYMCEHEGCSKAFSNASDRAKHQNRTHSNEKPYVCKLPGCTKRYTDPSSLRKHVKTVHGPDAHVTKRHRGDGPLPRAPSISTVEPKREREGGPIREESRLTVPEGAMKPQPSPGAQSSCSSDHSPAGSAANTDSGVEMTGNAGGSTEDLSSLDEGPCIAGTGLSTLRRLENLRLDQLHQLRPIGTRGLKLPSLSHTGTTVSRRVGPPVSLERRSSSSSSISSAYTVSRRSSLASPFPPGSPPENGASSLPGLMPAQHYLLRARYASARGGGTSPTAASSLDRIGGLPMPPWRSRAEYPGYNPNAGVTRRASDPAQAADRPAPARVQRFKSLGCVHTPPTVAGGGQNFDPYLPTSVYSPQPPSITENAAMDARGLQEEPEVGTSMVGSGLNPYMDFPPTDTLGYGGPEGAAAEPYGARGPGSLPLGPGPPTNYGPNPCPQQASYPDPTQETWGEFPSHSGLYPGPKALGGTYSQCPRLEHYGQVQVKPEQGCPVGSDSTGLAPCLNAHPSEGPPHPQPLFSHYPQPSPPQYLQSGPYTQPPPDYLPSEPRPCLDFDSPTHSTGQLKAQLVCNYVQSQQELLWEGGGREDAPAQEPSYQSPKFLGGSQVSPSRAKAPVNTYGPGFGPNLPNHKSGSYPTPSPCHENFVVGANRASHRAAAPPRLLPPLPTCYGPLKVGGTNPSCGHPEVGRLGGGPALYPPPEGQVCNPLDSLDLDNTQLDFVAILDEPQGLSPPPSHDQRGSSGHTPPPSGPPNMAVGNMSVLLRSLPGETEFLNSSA

How the values were obtained:
[1] = target: T1, SUFU (transfected, HEK293T) (UniProt Q9UMX1); experiment: co-IP; HEK293T cells transfected with indicated plasmids (with or without MEKK3); lysates with anti-HA agarose or anti-Flag magnetic beads overnight at 4 °C
T1 sequence: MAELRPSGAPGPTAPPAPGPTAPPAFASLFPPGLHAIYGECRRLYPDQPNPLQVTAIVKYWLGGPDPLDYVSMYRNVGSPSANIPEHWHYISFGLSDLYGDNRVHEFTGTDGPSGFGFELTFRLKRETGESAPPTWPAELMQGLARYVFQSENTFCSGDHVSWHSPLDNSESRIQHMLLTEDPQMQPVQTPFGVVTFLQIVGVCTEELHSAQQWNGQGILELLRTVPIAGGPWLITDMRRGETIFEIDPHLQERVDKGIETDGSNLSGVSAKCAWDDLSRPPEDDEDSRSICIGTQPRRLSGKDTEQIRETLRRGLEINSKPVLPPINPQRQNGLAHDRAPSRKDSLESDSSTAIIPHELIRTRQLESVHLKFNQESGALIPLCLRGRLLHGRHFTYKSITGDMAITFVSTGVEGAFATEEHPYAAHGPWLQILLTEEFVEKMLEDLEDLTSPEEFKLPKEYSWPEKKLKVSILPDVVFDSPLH

[2] = target: GLI1 (transfected, wild type) (human) (UniProt P08151); experiment: co-IP; co-immunoprecipitation of tagged GLI1 with tagged MEKK2, MEKK3 or MEKK3-KD (Supplementary Figures S1h-S1l); lysates with anti-HA agarose or anti-Flag magnetic beads overnight at 4 °C; cells and bait not given
[3] = target: GLI1-Flag (stable NIH3T3 cells, lentiviral) (human) (UniProt P08151); experiment: co-IP; lysates of NIH3T3 cells stably expressing GLI1-Flag (lentivirus; control and MEKK2/3 DKO cells), immunoprecipitated by Flag, endogenous partners blotted; beads overnight at 4 °C

B1: MEKK3 (transfected, wild type) (enzyme, UniProt Q99759 1-626)
chain: MDEQEALNSIMNDLVALQMNRRHRMPGYETMKNKDTGHSNRQSDVRIKFEHNGERRIIAFSRPVKYEDVEHKVTTVFGQPLDLHYMNNELSILLKNQDDLDKAIDILDRSSSMKSLRILLLSQDRNHNSSSPHSGVSRQVRIKASQSAGDINTIYQPPEPRSRHLSVSSQNPGRSSPPPGYVPERQQHIARQGSYTSINSEGEFIPETSEQCMLDPLSSAENSLSGSCQSLDRSADSPSFRKSRMSRAQSFPDNRQEYSDRETQLYDKGVKGGTYPRRYHVSVHHKDYSDGRRTFPRIRRHQGNLFTLVPSSRSLSTNGENMGLAVQYLDPRGRLRSADSENALSVQERNVPTKSPSAPINWRRGKLLGQGAFGRVYLCYDVDTGRELASKQVQFDPDSPETSKEVSALECEIQLLKNLQHERIVQYYGCLRDRAEKTLTIFMEYMPGGSVKDQLKAYGALTESVTRKYTRQILEGMSYLHSNMIVHRDIKGANILRDSAGNVKLGDFGASKRLQTICMSGTGMRSVTGTPYWMSPEVISGEGYGRKADVWSLGCTVVEMLTEKPPWAEYEAMAAIFKIATQPTNPQLPSHISEHGRDFLRRIFVEARQRPSAEELLTHHFAQLMY
binding [1]: binds | binding [2]: binds

B3: MEKK2 (transfected) (enzyme, UniProt Q9Y2U5 1-619)
chain: MDDQQALNSIMQDLAVLHKASRPALSLQETRKAKSSSPKKQNDVRVKFEHRGEKRILQFPRPVKLEDLRSKAKIAFGQSMDLHYTNNELVIPLTTQDDLDKAVELLDRSIHMKSLKILLVINGSTQATNLEPLPSLEDLDNTVFGAERKKRLSIIGPTSRDRSSPPPGYIPDELHQVARNGSFTSINSEGEFIPESMDQMLDPLSLSSPENSGSGSCPSLDSPLDGESYPKSRMPRAQSYPDNHQEFSDYDNPIFEKFGKGGTYPRRYHVSYHHQEYNDGRKTFPRARRTQGTSLRSPVSFSPTDHSLSTSSGSSIFTPEYDDSRIRRRGSDIDNPTLTVMDISPPSRSPRAPTNWRLGKLLGQGAFGRVYLCYDVDTGRELAVKQVQFDPDSPETSKEVNALECEIQLLKNLLHERIVQYYGCLRDPQEKTLSIFMEYMPGGSIKDQLKAYGALTENVTRKYTRQILEGVHYLHSNMIVHRDIKGANILRDSTGNVKLGDFGASKRLQTICLSGTGMKSVTGTPYWMSPEVISGEGYGRKADIWSVACTVVEMLTEKPPWAEFEAMAAIFKIATQPTNPKLPPHVSDYTRDFLKRIFVEAKLRPSADELLRHMFVHYH
binding [2]: binds

B4: MEKK2 (endogenous, NIH3T3) (enzyme, UniProt Q61083 1-619)
chain: MDDQQALNSIMQDLAVLHKASRPALSLQETRKAKPSSPKKQNDVRVKFEHRGEKRILQVTRPVKLEDLRSKSKIAFGQSMDLHYTNNELVIPLTTQDDLDKAVELLDRSIHMKSLKILLVVNGSTQATNLEPSPSPEDLNNTPLGAERKKRLSVVGPPNRDRSSPPPGYIPDILHQIARNGSFTSINSEGEFIPESMDQMLDPLSLSSPENSGSGSCPSLDSPLDGESYPKSRMPRAQSYPDNHQEFTDYDNPIFEKFGKGGTYPRRYHVSYHHQEYNDGRKTFPRARRTQGTSFRSPVSFSPTDHSLSTSSGSSVFTPEYDDSRIRRRGSDIDNPTLTVTDISPPSRSPRAPTNWRLGKLLGQGAFGRVYLCYDVDTGRELAVKQVQFNPESPETSKEVNALECEIQLLKNLLHERIVQYYGCLRDPQEKTLSIFMELSPGGSIKDQLKAYGALTENVTRKYTRQILEGVHYLHSNMIVHRDIKGANILRDSTGNIKLGDFGASKRLQTICLSGTGMKSVTGTPYWMSPEVISGEGYGRKADIWSVACTVVEMLTEKPPWAEFEAMAAIFKIATQPTNPKLPPHVSDYTRDFLKRIFVEAKLRPSAEELLRHMFVHYH
binding [3]: binds

B6: MEKK3 (endogenous, NIH3T3) (enzyme, UniProt Q61084 1-626)
chain: MDEQEALDSIMKDLVALQMSRRTRLSGYETMKNKDTGHPNRQSDVRIKFEHNGERRIIAFSRPVRYEDVEHKVTTVFGQPLDLHYMNNELSILLKNQDDLDKAIDILDRSSSMKSLRILLLSQDRNHTSSSPHSGVSRQVRIKPSQSAGDINTIYQAPEPRSRHLSVSSQNPGRSSPPPGYVPERQQHIARQGSYTSINSEGEFIPETSEQCMLDPLSSAENSLSGSCQSLDRSADSPSFRKSQMSRARSFPDNRKECSDRETQLYDKGVKGGTYPRRYHVSVHHKDYNDGRRTFPRIRRHQGNLFTLVPSSRSLSTNGENMGVAVQYLDPRGRLRSADSENALTVQERNVPTKSPSAPINWRRGKLLGQGAFGRVYLCYDVDTGRELASKQVQFDPDSPETSKEVSALECEIQLLKNLQHERIVQYYGCLRDRAEKILTIFMEYMPGGSVKDQLKAYGALTESVTRKYTRQILEGMSYLHSNMIVHRDIKGANILRDSAGNVKLGDFGASKRLQTICMSGTGIRSVTGTPYWMSPEVISGEGYGRKADVWSLGCTVVEMLTEKPPWAEYEAMAAIFKIATQPTNPQLPSHISEHGRDFLRRIFVEARQRPSAEELLTHHFAQLVY
binding [3]: binds

The remaining lines, values ahead:

binding [2]: binds
B2: MEKK3-KD (kinase-dead mutant, S526/T530 to Ala) (enzyme, UniProt Q99759 1-626)
chain: B1 chain with S526A, T530A

binding [3]: binds
B5: SUFU (endogenous, NIH3T3) (protein, UniProt Q9Z0P7 1-484)
chain: MAELRPSVAPGPAAPPASGPSAPPAFASLFPPGLHAIYGECRRLYPDQPNPLQVTAIVKYWLGGPDPLDYVSMYRNMGSPSANIPEHWHYISFGLSDLYGDNRVHEFTGTDGPSGFGFELTFRLKRETGESAPPTWPAELMQGLARYVFQSENTFCSGDHVSWHSPLDNSESRIQHMLLTEDPQMQPVRTPFGVVTFLQIVGVCTEELHSAQQWNGQGILELLRTVPIAGGPWLITDMRRGETIFEIDPHLQERVDKGIETDGSNLSGVSAKCAWDDLSRPPEDEEDSRSICLGTQPRRLSGKDTEQIRETLRRGLEINSKPVLPPINSQRQNGLTHDRAPSRKDSLGSDSSTAIIPHELIRTRQLESVHLKFNQESGALIPLCLRGRLLHGRHFTYKSITGDMAITFVSTGVEGAFATEEHPYAAHGPWLQILLTEEFVEKMLEDLEDLTSPEEFKLPKEYSWPEKKLKVSILPDVVFDSPLH
